The list shows a part of the results.
How the values were obtained:
Assay in all cases: log2 fold change, soluble protein after heating vs DMSO (PISA); higher = thermal stabilisation; K562 lysate, 10 uM; active = over 0.2 and 3.5 SD of the protein, either way, in both replicates (recomputed)
erlotinib = compound: C#Cc1cccc(Nc2ncnc3cc(OCCOC)c(OCCOC)cc23)c1 [erlotinib]
In short: (§1)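 Following dounce homogenisation of K562 pellets in PBS pH 7.4 with 1 mM MgCl2, crude extract at 1 mg/mL protein was incubated for 30 min with 10 μM compound. Aliquots were then heated for 3 min over 48°C-58°C and pooled, NP-40 was added to 0.5% at 4°C, and soluble protein was recovered as the supernatant at 21,000xg for 90 min. Channel-sum-equalised TMTpro 16plex LC-MS/MS quantified this protein. Each value, from duplicates, is a log-two fold change in thermal stability relative to solvent controls.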

The chains behind the UniProt entries cited, without tags or fusion partners. Where a name states a change or a piece, a line headed by the entry shows the natural chain unless it says otherwise.
UniProt P49137, whole entry, looked up: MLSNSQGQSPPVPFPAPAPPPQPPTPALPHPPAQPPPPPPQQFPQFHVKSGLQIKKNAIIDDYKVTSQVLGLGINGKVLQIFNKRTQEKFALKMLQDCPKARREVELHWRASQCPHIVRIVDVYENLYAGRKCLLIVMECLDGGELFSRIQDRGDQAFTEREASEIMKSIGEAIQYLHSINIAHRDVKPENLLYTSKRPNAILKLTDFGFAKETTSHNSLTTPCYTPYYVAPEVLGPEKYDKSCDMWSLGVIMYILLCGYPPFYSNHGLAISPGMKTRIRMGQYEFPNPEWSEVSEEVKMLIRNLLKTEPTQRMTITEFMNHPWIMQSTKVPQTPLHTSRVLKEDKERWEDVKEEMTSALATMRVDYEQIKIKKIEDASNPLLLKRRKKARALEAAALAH
UniProt O00462: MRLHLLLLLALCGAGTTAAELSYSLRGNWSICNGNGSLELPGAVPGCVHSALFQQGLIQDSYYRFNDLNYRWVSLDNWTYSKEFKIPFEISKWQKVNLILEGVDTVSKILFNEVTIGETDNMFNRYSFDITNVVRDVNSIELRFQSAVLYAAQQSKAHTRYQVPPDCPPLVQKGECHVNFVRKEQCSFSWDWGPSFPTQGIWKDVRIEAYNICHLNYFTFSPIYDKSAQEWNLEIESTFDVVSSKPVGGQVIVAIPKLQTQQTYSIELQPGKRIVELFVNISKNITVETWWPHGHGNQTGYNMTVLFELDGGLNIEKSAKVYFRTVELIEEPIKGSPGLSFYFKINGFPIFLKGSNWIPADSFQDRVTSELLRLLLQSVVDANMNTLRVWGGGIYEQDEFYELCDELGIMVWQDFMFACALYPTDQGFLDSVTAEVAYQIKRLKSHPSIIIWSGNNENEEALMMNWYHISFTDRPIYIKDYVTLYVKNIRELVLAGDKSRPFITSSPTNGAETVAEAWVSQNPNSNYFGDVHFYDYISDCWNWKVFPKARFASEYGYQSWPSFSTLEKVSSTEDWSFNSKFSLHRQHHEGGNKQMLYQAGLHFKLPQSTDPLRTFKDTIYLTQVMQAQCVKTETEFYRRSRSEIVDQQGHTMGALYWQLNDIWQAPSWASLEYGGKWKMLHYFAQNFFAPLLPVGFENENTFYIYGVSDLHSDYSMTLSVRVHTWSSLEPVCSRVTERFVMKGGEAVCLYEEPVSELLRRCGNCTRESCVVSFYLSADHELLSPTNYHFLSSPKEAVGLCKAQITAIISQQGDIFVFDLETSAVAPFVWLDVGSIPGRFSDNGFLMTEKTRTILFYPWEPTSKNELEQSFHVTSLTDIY
UniProt Q9Y6D9: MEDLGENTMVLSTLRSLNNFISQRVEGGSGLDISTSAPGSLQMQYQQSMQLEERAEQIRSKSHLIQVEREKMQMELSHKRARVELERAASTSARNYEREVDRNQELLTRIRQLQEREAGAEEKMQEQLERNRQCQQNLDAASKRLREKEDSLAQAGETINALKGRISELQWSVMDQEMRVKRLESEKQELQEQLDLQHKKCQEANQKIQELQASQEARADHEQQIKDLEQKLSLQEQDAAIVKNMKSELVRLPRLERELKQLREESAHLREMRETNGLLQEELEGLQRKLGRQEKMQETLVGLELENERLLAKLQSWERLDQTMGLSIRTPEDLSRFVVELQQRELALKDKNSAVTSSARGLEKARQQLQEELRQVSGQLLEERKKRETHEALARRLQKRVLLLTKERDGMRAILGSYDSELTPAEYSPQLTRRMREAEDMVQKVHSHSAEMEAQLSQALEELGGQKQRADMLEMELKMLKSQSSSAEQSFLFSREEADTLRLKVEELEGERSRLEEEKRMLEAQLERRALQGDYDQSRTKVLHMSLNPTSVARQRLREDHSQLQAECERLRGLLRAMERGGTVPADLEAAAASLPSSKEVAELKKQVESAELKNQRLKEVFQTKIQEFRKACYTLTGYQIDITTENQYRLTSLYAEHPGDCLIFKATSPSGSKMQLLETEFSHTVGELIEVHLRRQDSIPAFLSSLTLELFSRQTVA
UniProt Q96GW9: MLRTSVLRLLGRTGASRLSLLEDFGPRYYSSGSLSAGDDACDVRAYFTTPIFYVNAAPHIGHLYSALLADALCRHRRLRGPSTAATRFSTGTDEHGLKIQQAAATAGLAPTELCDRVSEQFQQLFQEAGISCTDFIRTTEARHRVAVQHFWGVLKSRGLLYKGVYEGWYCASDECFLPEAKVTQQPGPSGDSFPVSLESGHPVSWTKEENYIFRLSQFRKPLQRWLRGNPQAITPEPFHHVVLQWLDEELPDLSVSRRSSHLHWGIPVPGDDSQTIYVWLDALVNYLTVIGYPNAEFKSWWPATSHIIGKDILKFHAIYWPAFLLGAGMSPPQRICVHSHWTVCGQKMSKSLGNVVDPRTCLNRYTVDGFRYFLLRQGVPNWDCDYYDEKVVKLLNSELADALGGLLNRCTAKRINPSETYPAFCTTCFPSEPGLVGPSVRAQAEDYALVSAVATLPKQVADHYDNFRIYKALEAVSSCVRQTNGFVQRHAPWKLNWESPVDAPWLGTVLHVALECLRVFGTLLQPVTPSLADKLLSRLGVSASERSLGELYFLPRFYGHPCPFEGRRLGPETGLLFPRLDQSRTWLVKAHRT
UniProt Q9H0U3: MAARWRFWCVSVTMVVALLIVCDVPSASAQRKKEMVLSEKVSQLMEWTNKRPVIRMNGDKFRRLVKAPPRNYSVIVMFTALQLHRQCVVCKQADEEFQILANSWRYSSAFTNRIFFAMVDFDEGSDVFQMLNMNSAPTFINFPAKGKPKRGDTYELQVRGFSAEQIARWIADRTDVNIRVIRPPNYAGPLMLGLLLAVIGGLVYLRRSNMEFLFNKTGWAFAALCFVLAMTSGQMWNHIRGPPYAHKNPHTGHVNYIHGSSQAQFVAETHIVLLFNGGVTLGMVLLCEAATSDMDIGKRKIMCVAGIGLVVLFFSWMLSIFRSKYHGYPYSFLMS
UniProt Q8IWC1: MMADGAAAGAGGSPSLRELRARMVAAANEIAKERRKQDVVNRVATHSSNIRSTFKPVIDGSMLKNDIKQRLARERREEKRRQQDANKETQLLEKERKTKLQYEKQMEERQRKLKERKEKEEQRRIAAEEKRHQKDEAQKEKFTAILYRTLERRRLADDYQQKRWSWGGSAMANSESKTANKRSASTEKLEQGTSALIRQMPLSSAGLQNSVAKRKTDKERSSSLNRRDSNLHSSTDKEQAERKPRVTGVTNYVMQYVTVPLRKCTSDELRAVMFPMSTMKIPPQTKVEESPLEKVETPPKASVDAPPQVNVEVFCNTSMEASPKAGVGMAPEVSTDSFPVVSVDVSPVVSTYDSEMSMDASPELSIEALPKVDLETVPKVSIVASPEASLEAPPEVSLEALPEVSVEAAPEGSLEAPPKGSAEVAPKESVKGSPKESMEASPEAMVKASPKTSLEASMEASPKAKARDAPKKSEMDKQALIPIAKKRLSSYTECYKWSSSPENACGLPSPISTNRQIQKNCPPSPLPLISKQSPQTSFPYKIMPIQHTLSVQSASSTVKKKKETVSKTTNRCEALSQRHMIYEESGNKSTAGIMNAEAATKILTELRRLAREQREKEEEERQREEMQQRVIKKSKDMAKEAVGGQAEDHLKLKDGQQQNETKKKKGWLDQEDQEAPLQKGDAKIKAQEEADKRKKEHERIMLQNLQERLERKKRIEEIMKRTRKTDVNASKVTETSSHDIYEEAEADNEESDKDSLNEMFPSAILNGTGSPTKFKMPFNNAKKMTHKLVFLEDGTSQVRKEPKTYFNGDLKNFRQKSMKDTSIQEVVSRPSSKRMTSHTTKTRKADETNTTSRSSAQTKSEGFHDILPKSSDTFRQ
UniProt Q9P0L2: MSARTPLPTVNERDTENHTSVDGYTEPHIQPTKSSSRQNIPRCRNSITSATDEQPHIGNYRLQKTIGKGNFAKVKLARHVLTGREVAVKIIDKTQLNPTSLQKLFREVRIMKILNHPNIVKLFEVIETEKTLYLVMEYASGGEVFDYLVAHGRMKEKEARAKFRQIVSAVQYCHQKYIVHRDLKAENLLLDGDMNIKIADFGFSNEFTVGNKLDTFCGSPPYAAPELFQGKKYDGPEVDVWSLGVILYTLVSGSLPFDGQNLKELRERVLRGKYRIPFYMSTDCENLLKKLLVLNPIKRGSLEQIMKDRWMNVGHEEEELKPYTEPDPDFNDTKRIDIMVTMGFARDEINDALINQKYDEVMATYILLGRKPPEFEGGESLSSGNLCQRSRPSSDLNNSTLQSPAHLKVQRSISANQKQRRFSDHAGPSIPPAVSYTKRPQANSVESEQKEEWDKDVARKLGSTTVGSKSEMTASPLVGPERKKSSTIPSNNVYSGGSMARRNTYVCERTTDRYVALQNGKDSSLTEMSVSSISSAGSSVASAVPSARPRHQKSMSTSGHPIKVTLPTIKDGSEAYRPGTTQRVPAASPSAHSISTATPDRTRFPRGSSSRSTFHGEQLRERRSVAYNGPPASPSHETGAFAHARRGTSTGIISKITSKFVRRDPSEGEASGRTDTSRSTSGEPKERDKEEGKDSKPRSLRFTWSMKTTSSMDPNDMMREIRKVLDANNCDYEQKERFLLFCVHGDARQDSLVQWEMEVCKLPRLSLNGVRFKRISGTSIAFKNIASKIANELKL
UniProt Q86V48: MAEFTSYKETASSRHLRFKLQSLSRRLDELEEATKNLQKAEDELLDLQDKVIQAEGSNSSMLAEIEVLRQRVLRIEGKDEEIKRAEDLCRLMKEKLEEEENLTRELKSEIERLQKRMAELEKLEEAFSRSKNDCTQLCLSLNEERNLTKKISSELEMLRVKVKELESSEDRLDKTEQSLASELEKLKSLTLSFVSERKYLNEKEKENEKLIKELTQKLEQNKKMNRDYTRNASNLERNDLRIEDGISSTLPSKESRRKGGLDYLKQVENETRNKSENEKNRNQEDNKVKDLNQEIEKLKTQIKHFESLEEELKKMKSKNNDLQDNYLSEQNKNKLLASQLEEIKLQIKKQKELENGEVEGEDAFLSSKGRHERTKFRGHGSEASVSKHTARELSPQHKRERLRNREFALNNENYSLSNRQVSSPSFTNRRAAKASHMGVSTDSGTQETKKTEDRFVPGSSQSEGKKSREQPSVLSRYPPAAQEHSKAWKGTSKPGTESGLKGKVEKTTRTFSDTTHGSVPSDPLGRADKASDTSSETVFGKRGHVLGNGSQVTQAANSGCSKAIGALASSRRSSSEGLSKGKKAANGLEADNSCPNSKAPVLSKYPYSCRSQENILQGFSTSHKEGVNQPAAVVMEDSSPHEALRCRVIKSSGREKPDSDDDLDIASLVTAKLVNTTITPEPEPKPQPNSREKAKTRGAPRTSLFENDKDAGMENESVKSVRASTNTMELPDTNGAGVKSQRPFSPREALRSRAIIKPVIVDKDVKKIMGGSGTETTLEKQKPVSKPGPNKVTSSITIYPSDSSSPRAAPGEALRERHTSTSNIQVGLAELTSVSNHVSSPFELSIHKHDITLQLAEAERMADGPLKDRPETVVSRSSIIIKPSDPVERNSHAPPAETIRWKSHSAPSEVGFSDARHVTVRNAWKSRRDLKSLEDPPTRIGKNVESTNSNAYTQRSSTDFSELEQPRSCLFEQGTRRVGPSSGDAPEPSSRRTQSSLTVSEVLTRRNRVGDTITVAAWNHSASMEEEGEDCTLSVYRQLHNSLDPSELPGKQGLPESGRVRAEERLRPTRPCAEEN
UniProt O15479: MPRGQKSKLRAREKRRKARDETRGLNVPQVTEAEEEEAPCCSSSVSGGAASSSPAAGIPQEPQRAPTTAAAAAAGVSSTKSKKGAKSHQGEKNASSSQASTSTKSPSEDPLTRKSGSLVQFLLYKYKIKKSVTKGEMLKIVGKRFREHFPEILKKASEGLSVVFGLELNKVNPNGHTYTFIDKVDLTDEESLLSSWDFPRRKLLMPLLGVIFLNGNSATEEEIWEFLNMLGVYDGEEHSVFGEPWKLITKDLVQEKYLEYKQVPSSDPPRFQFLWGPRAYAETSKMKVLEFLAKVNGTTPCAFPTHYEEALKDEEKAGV
UniProt P43366: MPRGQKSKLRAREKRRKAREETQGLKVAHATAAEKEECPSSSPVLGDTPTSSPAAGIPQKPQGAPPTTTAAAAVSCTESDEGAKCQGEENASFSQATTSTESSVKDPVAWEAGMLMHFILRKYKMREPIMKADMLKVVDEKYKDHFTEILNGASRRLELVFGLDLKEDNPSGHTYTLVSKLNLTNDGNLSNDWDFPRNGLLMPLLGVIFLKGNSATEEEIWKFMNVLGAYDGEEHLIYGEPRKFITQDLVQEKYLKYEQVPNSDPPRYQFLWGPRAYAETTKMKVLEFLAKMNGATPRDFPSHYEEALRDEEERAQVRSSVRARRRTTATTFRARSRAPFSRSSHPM

[1] = compound: C/C(=N\NC(=O)C1=CC(=CC=C1)S(=O)(=O)N2CCOCC2)/C3=C(C=CC(=C3)Cl)O
In short: as §1

[2] = compound: C1=CC(=CC=C1C2=NC3=C(N2)C=C(C=C3)C(=O)N)OC4=CC=C(C=C4)Cl
In short: as §1

[3] = compound: C1=CC2=C(C=CC(=C2)/C=C\3/C(=O)NC(=NCC4=CC=CS4)S3)N=C1
In short: as §1

[4] = compound: C1=CC2=NC=CN=C2C=C1/C=C/3\C(=O)NC(=O)S3
In short: as §1

[5] = compound: C1=CC=C(C=C1)C2=NC(=C(N2)C3=CC=NC=C3)C4=CC(=C(C=C4)Cl)O
In short: as §1

[6] = compound: C1=CC=C2C(=C1)C3=NNC4=CC=CC(=C43)C2=O
In short: as §1

[7] = compound: C1CCN(C1)C(=O)NC2=CC=CC(=C2)NC3=NC=C(C(=N3)NCCC4=CN=CN4)Br
In short: as §1

[8] = compound: C1CN(CCC1(CC2=CC=C(C=C2)Cl)N)C3=NC=NC4=C3C=CN4
In short: as §1

IRAK-1-4 Inhibitor I = compound: C1COCCN1CCN2C3=CC=CC=C3N=C2NC(=O)C4=CC(=CC=C4)[N+](=O)[O-] [IRAK-1-4 Inhibitor I]
In short: as §1

ibrutinib = compound: C=CC(=O)N1CCC[C@@H](n2nc(-c3ccc(Oc4ccccc4)cc3)c3c(N)ncnc32)C1 [ibrutinib]
In short: as §1

[9] = compound: CC(=O)c1cnc2ccc(-c3cc(Cl)c(O)c(Cl)c3)nc2c1N[C@H]1CC[C@H](CN(C)C)CC1
In short: as §1

ralimetinib = compound: CC(C)(C)Cn1c(N)nc2ccc(-c3[nH]c(C(C)(C)C)nc3-c3ccc(F)cc3)nc21 [ralimetinib]
In short: as §1

[10] = compound: CC(C)(O)CC(=O)NCCn1ccc2ncnc(Nc3ccc(Oc4cccc(C(F)(F)F)c4)c(Cl)c3)c21
In short: as §1

[11] = compound: CC(C)C1=C2N=C(C=C(N2N=C1)NCC3=CC=CC=C3)NCCCCCCN
In short: as §1

[12] = compound: CC1=C(C(CC(=O)N1)C2=CC=C(C=C2)C(F)(F)F)C(=O)NC3=C(C=C4C(=C3)C=NN4)F
In short: as §1

[13] = compound: CC1=C(C2=C(C=C1)C(=O)C3=CC=CC=C3N2CCCN)C
In short: as §1

[14] = compound: CC1=C(C=C(C=C1)NC(=O)C2=CC(=CC=C2)C(C)(C)C#N)NC3=CC4=C(C=C3)N=CN(C4=O)C
In short: as §1

[15] = compound: CC1=C(C=C(C=C1)NC(=O)C2=CC(=CC=C2)N(C)C)NC(=O)C3=CC=C(C=C3)O
In short: as §1

[16] = compound: CC1=CC=C(C=C1)SC2=C3C=C(SC3=CN=C2)C(=O)N
In short: as §1

Measured: log2 fold change

MARK2 (UniProt E9PC69)
inactive: erlotinib 0.095 | [1] 0.132 | [2] 0.026 | [3] 0.056 | [4] -0.017 | [5] 0.024 | [6] -0.246 | [7] -0.18 | [8] -0.084 | IRAK-1-4 Inhibitor I -0.076 | ibrutinib 0.139 | [9] -0.053 | ralimetinib 0.014 | [10] -0.004 | [11] 0.015 | [12] -0.012 | [13] -0.063 | [14] 0.024 | [15] 0.045 | [16] 0.012

MAPKAPK2 (UniProt P49137)
inactive: erlotinib -0.047 | [1] 0.041 | [2] 0 | [3] 0.192 | [4] 0.003 | [5] 0.013 | [6] 0.026 | [7] -0.02 | [8] 0.018 | IRAK-1-4 Inhibitor I -0.017 | ibrutinib 0.05 | ralimetinib -0.011 | [10] 0.016 | [11] -0.046 | [12] 0.003 | [13] 0.002 | [14] -0.056 | [15] 0.026 | [16] 0
active: [9] 0.385

MANBA (UniProt O00462)
inactive: erlotinib 0.005 | [1] -0.018 | [2] 0.023 | [3] 0.034 | [4] 0.041 | [5] -0.001 | [6] -0.005 | [7] 0.092 | [8] 0.032 | IRAK-1-4 Inhibitor I 0.028 | ibrutinib 0.019 | [9] -0.005 | ralimetinib 0.016 | [10] 0.016 | [11] -0.017 | [12] 0.003 | [13] -0.029 | [14] 0.003 | [15] -0.002 | [16] 0.005

MAD1L1 (UniProt Q9Y6D9)
inactive: erlotinib -0.036 | [1] 0.032 | [2] -0.022 | [3] 0.008 | [4] -0.027 | [5] 0.003 | [6] 0.002 | [7] -0.042 | [8] -0.007 | IRAK-1-4 Inhibitor I -0.03 | ibrutinib 0.006 | [9] 0.003 | ralimetinib -0.047 | [10] -0.019 | [11] 0.006 | [12] 0.024 | [13] -0.058 | [14] 0.074 | [15] -0.022 | [16] -0.027

MARS2 (UniProt Q96GW9)
inactive: erlotinib 0.06 | [1] -0.011 | [2] -0.006 | [3] 0.002 | [4] 0.044 | [5] -0.02 | [6] 0.003 | [7] -0.047 | [8] 0.019 | IRAK-1-4 Inhibitor I 0.035 | ibrutinib 0.004 | [9] 0.018 | ralimetinib 0.008 | [10] -0.048 | [11] 0.014 | [12] 0.017 | [13] -0.05 | [14] -0.033 | [15] -0.022 | [16] 0.007

MAGT1 (UniProt Q9H0U3)
inactive: erlotinib -0.015 | [1] -0.007 | [2] -0.004 | [3] -0.004 | [4] -0.007 | [5] -0.031 | [6] -0.071 | [7] -0.034 | [8] -0.006 | IRAK-1-4 Inhibitor I 0.07 | ibrutinib -0.027 | [9] 0.006 | ralimetinib 0.028 | [10] 0.022 | [11] 0.043 | [12] -0.058 | [13] 0 | [14] 0.039 | [15] 0.028 | [16] 0.003

MAP7D3 (UniProt Q8IWC1)
inactive: erlotinib 0.069 | [1] 0.053 | [2] 0.281 | [3] 0.052 | [4] -0.023 | [5] -0.025 | [6] 0.044 | [7] -0.034 | [8] -0.012 | IRAK-1-4 Inhibitor I -0.017 | ibrutinib -0.073 | [9] 0.005 | ralimetinib 0.023 | [10] -0.019 | [11] -0.22 | [12] 0.035 | [13] 0.009 | [14] 0.046 | [15] 0.087 | [16] -0.039

MARK1 (UniProt Q9P0L2)
inactive: erlotinib 0.105 | [1] 0.006 | [2] -0.018 | [3] 0.029 | [4] -0.01 | [5] -0.001 | [6] -0.26 | [7] -0.255 | [8] -0.111 | IRAK-1-4 Inhibitor I -0.045 | ibrutinib -0.006 | [9] -0.054 | ralimetinib 0.078 | [10] 0.046 | [11] 0.021 | [12] 0.011 | [13] 0.021 | [14] 0.07 | [15] 0.04 | [16] 0.007

LUZP1 (UniProt Q86V48)
inactive: erlotinib -0.074 | [1] -0.06 | [2] -0.033 | [3] 0.027 | [4] -0.028 | [5] -0.009 | [6] 0.031 | [7] -0.009 | [8] 0.009 | IRAK-1-4 Inhibitor I 0.085 | ibrutinib 0.002 | [9] -0.002 | ralimetinib 0.003 | [10] -0.012 | [11] 0.016 | [12] -0.006 | [13] 0.012 | [14] 0.011 | [15] -0.002 | [16] 0.017

MAGEB2 (UniProt O15479)
inactive: erlotinib 0.011 | [1] -0.097 | [2] 0.01 | [3] 0.005 | [4] -0.009 | [5] 0.003 | [6] -0.009 | [7] 0.003 | [8] -0.015 | IRAK-1-4 Inhibitor I -0.03 | ibrutinib -0.021 | [9] -0.002 | ralimetinib 0.004 | [10] 0.034 | [11] -0.005 | [12] -0.001 | [13] -0.041 | [14] -0.009 | [15] -0.001 | [16] 0.026

MAPK9 (UniProt P45984)
active: [6] 0.393 | [9] 0.234 | ralimetinib 0.366
inactive: erlotinib -0.001 | [1] 0.017 | [2] -0.018 | [3] -0.015 | [4] 0.014 | [5] 0.068 | [7] 0.061 | [8] -0.032 | IRAK-1-4 Inhibitor I -0.014 | ibrutinib -0.024 | [10] 0.002 | [11] -0.029 | [12] -0.038 | [13] -0.086 | [14] 0.103 | [15] -0.029 | [16] -0.015

MACC1 (UniProt Q6ZN28)
inactive: erlotinib 0.003 | [1] -0.091 | [2] 0.02 | [3] -0.018 | [4] 0.009 | [5] 0.041 | [6] 0.017 | [7] -0.075 | [8] 0.005 | IRAK-1-4 Inhibitor I -0.019 | ibrutinib 0.025 | [9] -0.062 | ralimetinib 0.05 | [10] -0.072 | [11] -0.037 | [12] 0.027 | [13] -0.041 | [14] 0.093 | [15] 0.042 | [16] -0.007

MAGEB1 (UniProt P43366)
inactive: erlotinib 0.036 | [1] -0.081 | [2] -0.066 | [3] -0.004 | [4] 0.036 | [5] -0.028 | [6] -0.032 | [7] -0.004 | [8] -0.044 | IRAK-1-4 Inhibitor I -0.013 | ibrutinib -0.001 | [9] 0 | ralimetinib 0.033 | [10] 0.004 | [11] 0.03 | [12] -0.005 | [13] -0.08 | [14] -0.028 | [15] 0.023 | [16] 0.017

MALSU1 (UniProt Q96EH3)
inactive: erlotinib 0.054 | [1] -0.022 | [2] -0.041 | [3] 0.025 | [4] -0.006 | [5] 0.035 | [6] -0.168 | [7] -0.022 | [8] -0.003 | IRAK-1-4 Inhibitor I 0.04 | ibrutinib 0.172 | [9] -0.009 | ralimetinib 0.024 | [10] -0.044 | [11] 0.015 | [12] 0.009 | [13] -0.014 | [14] 0.033 | [15] 0.038 | [16] 0.018

2 entries picked at random from those above:
MALSU1 (UniProt Q96EH3)
inactive: erlotinib 0.054 | [1] -0.022 | [2] -0.041 | [3] 0.025 | [4] -0.006 | [5] 0.035 | [6] -0.168 | [7] -0.022 | [8] -0.003 | IRAK-1-4 Inhibitor I 0.04 | ibrutinib 0.172 | [9] -0.009 | ralimetinib 0.024 | [10] -0.044 | [11] 0.015 | [12] 0.009 | [13] -0.014 | [14] 0.033 | [15] 0.038 | [16] 0.018

MAGT1 (UniProt Q9H0U3)
inactive: erlotinib -0.015 | [1] -0.007 | [2] -0.004 | [3] -0.004 | [4] -0.007 | [5] -0.031 | [6] -0.071 | [7] -0.034 | [8] -0.006 | IRAK-1-4 Inhibitor I 0.07 | ibrutinib -0.027 | [9] 0.006 | ralimetinib 0.028 | [10] 0.022 | [11] 0.043 | [12] -0.058 | [13] 0 | [14] 0.039 | [15] 0.028 | [16] 0.003

(listing goes on)

MAP1A (UniProt P78559)
inactive: erlotinib -0.007 | [1] 0.024 | [2] -0.013 | [3] -0.007 | [4] -0.007 | [5] 0.007 | [6] -0.011 | [7] -0.02 | [8] -0.017 | IRAK-1-4 Inhibitor I -0.011 | ibrutinib 0.018 | [9] 0.006 | ralimetinib 0.011 | [10] 0.01 | [11] 0 | [12] -0.023 | [13] 0.008 | [14] 0.011 | [15] 0.01 | [16] -0.006
